Three molecules from US20150274771A1 (Affibody, published 2015) can be followed below.

For assay [1], the target named is T1, PEP08515.
T1 construct: applied in a clarified E. coli extract
The assay is described as follows: spin column, ligand on SulfoLink resin, bacterial extract with PEP08515, compared with HSA Sepharose (column study II).

The target of assay [2] is T2, PEP08517.
T2 construct: also called ABD fusion protein PEP08517
The assay is described as follows: spin column, ligand on SulfoLink resin, pure PEP08517, A280 of fractions (column study I).

B1: His6-(Z06650)2-Cys (designed binder)
chain: MGSSHHHHHHLQVDAKYAKEFKLALQEIHYLPNLTLDQRLAFILKLDDDPSQSSELLAEAKKLNDAQAPKVDAKYAKEFKLALQEIHYLPNLTLDQRLAFILKLDDDPSQSSELLAEAKKLNDAQAPKVDC
modifications: coupled to resin through the C-terminal cysteine (thioether)
notes: immobilised on SulfoLink Coupling Resin
For the molecule B1, the binding result in assay [1] and in assay [2] was “binds” throughout.

B2: His6-(Z06608)2-Cys (designed binder)
chain: MGSSHHHHHHLQVDAKYAKELHHAFREIKFLPNLTFHQRLAFIVKLDDDPSQSSELLAEAKKLNDAQAPKVDAKYAKELHHAFREIKFLPNLTFHQRLAFIVKLDDDPSQSSELLAEAKKLNDAQAPKVDC
modifications: coupled to resin through the C-terminal cysteine (thioether)
notes: as for B1
With B2, the binding result in assay [1] and in assay [2] was “binds” throughout.

B3: His6-(Z06638)2-Cys (designed binder)
chain: MGSSHHHHHHLQVDAKYAKELVNAFSEIKALPNLTLHQRLAFIVKLDDDPSQSSELLAEAKKLNDAQAPKVDAKYAKELVNAFSEIKALPNLTLHQRLAFIVKLDDDPSQSSELLAEAKKLNDAQAPKVDC
modifications: coupled to resin through the C-terminal cysteine (thioether)
notes: as for B1
Turning to B3, the binding result in assay [1] and in assay [2] was “binds” throughout.
